No constants are given. Whether binding was seen depends on the method and setting. In cells and extracts the contact can be indirect. Some entries that bind do so weakly or less than the wild type.
T1: interleukin-1 receptor-associated kinase-like 2 (Irak2) (mouse (endogenous in primary mouse cardiomyocytes)) (UniProt Q8CFA1)
T1 sequence: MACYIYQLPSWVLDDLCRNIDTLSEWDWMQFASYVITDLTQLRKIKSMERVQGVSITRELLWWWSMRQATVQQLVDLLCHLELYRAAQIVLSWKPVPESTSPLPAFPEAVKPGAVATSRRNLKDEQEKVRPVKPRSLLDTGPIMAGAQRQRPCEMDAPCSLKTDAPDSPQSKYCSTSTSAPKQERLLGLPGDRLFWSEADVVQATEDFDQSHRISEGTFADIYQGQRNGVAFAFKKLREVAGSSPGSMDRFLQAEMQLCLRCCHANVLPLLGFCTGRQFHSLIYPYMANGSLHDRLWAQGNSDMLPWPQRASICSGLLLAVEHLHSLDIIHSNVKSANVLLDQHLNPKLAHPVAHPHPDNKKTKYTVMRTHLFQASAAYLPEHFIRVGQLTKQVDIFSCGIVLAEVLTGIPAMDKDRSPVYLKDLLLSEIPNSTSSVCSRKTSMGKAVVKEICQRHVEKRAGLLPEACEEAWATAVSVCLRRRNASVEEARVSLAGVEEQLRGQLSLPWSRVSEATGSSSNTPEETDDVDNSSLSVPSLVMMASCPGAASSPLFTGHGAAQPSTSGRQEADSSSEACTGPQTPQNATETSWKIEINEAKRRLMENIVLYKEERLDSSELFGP

Protein sequences, listed by entry. Tags and fused reporters are not part of them. Residues count along the entry.
UniProt P58281, residues 88-960: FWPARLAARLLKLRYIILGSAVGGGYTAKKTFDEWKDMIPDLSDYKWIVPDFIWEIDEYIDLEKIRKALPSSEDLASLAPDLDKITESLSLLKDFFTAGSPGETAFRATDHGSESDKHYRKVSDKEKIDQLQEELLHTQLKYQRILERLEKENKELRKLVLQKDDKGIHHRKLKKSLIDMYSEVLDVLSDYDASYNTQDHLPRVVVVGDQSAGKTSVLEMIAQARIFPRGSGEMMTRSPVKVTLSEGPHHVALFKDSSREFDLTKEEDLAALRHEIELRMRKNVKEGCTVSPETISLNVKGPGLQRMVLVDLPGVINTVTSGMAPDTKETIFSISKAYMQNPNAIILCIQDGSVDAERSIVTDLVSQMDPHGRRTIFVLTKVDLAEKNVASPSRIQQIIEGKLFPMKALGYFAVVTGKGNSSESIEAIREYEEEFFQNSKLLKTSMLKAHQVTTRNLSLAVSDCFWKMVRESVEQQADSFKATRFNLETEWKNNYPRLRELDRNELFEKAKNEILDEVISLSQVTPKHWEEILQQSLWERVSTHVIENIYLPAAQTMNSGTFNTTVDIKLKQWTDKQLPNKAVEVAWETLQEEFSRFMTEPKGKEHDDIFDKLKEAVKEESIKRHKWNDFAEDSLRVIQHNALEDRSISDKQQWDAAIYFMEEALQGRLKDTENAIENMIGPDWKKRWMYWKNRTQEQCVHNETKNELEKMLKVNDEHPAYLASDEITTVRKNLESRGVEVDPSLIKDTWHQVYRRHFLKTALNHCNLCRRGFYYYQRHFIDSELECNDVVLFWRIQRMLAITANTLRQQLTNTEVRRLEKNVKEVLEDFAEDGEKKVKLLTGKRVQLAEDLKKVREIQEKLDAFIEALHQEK

B1: prohibitin (Phb) (protein, UniProt P67778 1-272)
chain: MAAKVFESIGKFGLALAVAGGVVNSALYNVDAGHRAVIFDRFRGVQDIVVGEGTHFLIPWVQKPIIFDCRSRPRNVPVITGSKDLQNVNITLRILFRPVASQLPRIYTSIGEDYDERVLPSITTEILKSVVARFDAGELITQRELVSRQVSDDLTERAATFGLILDDVSLTHLTFGKEFTEAVEAKQVAQQEAERARFVVEKAEQQKKAAIISAEGDSKAAELIANSLATAGDGLIELRKLEAAEDIAYQLSRSRNITYLPAGQSVLLQLPQ

Biological target: T1, interleukin-1 receptor-associated kinase-like 2 (Irak2) (mouse (endogenous in primary mouse cardiomyocytes))
Assay: co-IP; Co-IP of Irak2 and Phb-Opa1 in myocardial mitochondria, upon PA challenge (Additional file 1: Fig. S4)

| Molecule | binding |
| --- | --- |
| optic atrophy protein 1 (Opa1) (from UniProt P58281 88-960) | binds |
| B1 | binds |
